From the supplement of paper PMC12067093, “Discovery and optimisation of a covalent ligand for TRIM25 and its application to targeted protein ubiquitination” (Chemical Science, 2025)
The other results are listed elsewhere or left out.

Amino acid sequences for entries named in this document (tags omitted). A change or cut given only in a name is not applied to a line headed by its entry.
UniProt Q3KQV9: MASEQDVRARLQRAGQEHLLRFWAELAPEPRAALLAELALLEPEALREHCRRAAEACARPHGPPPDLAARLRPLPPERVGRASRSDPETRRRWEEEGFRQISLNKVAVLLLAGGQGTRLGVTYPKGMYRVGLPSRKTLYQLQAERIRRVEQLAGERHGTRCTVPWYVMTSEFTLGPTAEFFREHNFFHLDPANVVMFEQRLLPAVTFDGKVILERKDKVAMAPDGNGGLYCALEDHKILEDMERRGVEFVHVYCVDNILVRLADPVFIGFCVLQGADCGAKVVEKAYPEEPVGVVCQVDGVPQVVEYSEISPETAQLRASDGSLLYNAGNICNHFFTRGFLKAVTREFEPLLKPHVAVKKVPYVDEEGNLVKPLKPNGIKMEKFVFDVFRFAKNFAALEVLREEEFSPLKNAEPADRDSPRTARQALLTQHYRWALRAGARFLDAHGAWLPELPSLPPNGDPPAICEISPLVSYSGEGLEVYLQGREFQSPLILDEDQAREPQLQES
UniProt P26368, whole entry, looked up: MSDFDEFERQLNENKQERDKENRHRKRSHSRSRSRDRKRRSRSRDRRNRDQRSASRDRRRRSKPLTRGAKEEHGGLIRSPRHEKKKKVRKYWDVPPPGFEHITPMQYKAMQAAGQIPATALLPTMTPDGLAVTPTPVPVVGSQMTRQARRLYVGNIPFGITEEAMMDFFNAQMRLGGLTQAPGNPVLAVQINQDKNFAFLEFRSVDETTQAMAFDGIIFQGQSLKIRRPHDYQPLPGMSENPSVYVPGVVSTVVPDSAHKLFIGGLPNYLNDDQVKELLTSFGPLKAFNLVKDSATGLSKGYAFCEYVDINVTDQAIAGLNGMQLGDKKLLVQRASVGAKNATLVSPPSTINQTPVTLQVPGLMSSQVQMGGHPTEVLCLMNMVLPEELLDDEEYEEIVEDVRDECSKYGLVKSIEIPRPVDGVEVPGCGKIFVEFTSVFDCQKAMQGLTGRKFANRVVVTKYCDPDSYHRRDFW
UniProt O14933: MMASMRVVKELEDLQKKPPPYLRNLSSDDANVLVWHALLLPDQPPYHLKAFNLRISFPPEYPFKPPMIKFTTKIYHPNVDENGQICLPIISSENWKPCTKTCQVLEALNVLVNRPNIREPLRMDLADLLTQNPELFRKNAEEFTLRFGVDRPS
UniProt O95071: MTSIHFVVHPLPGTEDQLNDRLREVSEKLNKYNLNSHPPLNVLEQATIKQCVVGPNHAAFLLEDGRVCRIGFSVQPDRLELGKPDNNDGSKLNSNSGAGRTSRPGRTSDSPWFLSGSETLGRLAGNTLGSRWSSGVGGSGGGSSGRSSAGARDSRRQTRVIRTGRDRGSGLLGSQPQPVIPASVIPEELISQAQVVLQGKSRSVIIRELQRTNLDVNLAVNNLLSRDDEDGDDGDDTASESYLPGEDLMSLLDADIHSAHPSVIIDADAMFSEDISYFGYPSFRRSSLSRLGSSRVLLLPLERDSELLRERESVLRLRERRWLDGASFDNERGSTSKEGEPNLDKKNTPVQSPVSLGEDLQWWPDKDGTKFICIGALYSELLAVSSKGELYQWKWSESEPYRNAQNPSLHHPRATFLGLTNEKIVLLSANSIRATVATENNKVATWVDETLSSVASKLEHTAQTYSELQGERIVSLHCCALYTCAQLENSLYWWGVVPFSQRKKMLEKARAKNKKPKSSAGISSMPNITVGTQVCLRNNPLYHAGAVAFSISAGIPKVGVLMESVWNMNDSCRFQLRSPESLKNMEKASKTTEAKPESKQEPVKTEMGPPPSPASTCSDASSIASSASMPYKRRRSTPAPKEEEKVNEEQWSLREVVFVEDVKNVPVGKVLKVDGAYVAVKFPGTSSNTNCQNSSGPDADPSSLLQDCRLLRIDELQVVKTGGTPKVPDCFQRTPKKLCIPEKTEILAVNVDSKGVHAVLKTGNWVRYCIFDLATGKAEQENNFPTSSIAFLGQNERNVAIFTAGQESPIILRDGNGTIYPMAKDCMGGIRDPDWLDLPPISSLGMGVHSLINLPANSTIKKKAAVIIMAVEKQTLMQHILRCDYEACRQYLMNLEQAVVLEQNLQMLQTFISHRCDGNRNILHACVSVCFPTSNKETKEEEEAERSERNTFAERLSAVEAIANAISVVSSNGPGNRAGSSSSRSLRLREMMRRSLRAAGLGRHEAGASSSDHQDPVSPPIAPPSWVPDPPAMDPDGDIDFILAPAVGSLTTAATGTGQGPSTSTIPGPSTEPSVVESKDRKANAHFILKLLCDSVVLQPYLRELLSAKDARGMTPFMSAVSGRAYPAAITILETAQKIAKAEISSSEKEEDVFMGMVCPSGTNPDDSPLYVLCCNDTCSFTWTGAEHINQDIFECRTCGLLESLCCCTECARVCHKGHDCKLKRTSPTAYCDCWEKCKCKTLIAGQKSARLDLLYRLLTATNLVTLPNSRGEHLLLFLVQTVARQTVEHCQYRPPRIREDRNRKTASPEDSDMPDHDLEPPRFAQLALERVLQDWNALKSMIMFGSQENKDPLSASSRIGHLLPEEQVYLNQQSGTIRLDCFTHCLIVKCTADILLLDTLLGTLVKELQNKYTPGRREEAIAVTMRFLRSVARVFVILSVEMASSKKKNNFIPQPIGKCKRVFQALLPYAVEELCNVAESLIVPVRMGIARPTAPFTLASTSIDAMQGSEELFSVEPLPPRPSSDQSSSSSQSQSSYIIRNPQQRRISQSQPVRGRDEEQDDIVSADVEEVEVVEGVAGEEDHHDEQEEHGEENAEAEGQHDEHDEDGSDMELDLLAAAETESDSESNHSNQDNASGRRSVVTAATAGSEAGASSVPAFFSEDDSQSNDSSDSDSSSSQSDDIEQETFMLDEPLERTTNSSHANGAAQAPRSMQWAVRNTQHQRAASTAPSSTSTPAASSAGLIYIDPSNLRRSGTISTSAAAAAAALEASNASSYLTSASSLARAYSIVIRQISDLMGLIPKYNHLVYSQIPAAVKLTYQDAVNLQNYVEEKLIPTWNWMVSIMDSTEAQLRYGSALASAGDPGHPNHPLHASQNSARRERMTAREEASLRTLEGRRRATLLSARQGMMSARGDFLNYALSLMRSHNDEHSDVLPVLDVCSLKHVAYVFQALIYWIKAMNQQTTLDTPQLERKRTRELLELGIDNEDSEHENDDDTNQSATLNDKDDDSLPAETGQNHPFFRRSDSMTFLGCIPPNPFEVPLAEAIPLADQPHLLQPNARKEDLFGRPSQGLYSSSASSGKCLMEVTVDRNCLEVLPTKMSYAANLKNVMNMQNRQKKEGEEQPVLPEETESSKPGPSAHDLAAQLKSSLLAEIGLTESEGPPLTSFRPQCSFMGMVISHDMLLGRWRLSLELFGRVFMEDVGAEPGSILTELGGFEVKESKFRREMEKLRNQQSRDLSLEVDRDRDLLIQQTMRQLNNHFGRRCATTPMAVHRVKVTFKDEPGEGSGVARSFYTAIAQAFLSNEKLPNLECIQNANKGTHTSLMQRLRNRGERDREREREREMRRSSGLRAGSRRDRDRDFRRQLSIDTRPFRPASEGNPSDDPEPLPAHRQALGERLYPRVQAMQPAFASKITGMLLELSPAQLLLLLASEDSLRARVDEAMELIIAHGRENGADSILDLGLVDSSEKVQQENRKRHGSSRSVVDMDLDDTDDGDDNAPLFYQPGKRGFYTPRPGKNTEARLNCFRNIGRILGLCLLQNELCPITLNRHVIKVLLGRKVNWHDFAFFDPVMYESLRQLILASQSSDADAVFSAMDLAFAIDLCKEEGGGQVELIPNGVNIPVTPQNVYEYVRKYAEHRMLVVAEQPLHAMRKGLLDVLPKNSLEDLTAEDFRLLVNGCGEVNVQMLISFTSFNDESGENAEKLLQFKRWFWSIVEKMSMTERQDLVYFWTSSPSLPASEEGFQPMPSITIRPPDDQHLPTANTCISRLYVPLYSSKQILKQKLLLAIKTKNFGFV
UniProt Q9BZF9: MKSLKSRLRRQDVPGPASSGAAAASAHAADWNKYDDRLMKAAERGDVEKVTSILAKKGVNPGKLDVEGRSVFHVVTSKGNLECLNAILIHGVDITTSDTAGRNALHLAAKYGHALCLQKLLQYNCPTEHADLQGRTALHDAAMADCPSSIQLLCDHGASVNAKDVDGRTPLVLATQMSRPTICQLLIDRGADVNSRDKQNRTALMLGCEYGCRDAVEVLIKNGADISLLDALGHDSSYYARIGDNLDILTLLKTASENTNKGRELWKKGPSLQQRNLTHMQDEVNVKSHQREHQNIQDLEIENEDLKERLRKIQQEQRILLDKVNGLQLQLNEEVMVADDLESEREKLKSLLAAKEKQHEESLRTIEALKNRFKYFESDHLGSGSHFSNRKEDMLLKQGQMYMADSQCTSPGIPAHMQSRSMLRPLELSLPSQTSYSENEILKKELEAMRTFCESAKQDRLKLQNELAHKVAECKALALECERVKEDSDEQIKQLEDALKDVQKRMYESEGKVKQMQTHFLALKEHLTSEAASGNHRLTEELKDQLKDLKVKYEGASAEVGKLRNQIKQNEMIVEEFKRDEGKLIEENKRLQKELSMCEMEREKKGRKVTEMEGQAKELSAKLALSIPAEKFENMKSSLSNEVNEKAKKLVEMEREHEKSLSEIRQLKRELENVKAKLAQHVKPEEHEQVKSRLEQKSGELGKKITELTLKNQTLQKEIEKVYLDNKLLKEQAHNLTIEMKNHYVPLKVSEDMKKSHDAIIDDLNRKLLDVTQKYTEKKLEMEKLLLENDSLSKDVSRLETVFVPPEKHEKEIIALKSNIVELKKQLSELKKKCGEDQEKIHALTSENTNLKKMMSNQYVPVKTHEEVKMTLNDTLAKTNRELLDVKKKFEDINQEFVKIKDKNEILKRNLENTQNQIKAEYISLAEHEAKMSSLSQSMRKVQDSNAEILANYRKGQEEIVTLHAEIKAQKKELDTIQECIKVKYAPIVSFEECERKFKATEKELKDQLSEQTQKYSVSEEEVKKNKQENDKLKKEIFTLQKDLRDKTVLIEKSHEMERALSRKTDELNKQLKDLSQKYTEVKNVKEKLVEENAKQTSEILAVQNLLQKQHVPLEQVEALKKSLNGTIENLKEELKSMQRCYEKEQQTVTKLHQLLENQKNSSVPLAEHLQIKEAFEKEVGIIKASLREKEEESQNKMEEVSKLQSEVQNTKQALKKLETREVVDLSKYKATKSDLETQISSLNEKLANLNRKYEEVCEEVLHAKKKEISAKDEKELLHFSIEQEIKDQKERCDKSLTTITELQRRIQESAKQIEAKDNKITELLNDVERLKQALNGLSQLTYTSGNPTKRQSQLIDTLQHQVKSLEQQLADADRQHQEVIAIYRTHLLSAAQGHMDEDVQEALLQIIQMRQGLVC
UniProt P29597: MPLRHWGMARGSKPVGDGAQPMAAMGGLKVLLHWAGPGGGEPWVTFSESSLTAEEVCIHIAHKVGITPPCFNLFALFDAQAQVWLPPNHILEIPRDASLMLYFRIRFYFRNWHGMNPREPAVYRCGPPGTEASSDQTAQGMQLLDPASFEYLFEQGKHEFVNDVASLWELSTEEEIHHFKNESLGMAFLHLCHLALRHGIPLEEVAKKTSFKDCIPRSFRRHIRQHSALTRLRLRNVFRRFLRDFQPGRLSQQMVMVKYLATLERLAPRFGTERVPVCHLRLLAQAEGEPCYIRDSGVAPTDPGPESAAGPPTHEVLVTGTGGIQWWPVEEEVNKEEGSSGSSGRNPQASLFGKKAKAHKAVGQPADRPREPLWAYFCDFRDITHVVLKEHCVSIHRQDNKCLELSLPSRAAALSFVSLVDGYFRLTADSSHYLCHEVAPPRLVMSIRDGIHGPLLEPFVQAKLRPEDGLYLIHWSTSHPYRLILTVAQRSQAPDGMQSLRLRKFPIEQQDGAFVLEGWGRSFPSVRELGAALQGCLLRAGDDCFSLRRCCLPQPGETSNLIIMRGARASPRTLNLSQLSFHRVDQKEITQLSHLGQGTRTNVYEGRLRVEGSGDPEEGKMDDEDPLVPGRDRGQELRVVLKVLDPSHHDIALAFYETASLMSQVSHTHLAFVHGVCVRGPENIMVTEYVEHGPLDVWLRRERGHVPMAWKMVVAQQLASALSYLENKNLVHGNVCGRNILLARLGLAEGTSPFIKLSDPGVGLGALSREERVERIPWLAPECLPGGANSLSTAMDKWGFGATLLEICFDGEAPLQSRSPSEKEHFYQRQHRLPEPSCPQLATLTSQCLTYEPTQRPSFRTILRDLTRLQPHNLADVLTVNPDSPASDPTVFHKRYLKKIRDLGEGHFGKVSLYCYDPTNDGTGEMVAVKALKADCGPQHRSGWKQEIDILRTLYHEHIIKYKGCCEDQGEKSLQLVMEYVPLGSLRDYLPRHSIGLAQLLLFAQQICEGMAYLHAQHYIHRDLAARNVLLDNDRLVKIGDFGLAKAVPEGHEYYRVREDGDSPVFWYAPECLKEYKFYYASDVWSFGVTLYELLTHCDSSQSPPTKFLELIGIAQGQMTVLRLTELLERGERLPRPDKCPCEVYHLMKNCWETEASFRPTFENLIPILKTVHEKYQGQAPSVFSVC

Compound: Cc1cc(ccc1-c1ccccc1)C(=O)N1CCCN(CC1)C(=O)CCl [compound 10]
Experiment: probe-labelled cysteine peptide fold change vs DMSO (competition) (log2 fold change); higher = less target engagement (more negative = stronger competition)
Conditions: THP-1, incubation time: 4 h
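Note: competitive profiling in live THP-1 cells: cysteine peptides tagged with an iodoacetamide desthiobiotin (IA-DTB) probe, intensity after compound treatment relative to DMSO-treated cells.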

Row | Target | probe-labelled cysteine peptide fold change (10 µM) | probe-labelled cysteine peptide fold change (50 µM)
1 | UBA6_A0AVT1_231_EIFISNITQANPGIVTCLENHPHK | -0.117 | 0.131
2 | UAP1L1_Q3KQV9_254_GVEFVHVYCVDNILVR (UniProt Q3KQV9) | 0.119 | 0.12
3 | UAP1L1_Q3KQV9_271_LADPVFIGFCVLQGADCGAK (UniProt Q3KQV9) | -0.0691 | -0.00351
4 | UBR4_Q5T4S7_4430_VWCTTNEGEPMR (UniProt Q5T4S7) | -0.0106 | 0.0362
5 | U2AF2_P26368_464_YCDPDSYHRR (UniProt P26368) | 0.162 | -0.258
6 | TXNL1_O43396_64_YPQAVFLEVDVHQCQGTAATNNISATPTFLFFR (UniProt O43396) | -0.078 | 0.154
7 | UBR4_Q5T4S7_2688_IYMQMLLCPDPAVSFSCK (UniProt Q5T4S7) | -0.082 | -0.0807
8 | UBR2_Q8IWV8_1332_VHPNEEDPRVPIMCWGSCAYTIQSIER (UniProt Q8IWV8) | -0.118 | -0.386
9 | UBA3_Q8TBC4_28_MAVDGGCGDTGDWEGR (UniProt Q8TBC4) | -0.245 | -0.0349
10 | UBR1_Q8IWV7_1603_NSLIELPDDYSCLLNQASHFR (UniProt Q8IWV7) | -0.114 | -0.631
11 | UBE2L6_O14933_102_TCQVLEALNVLVNRPNIREPLR (UniProt O14933) | -0.369 | -0.301
12 | UBR7_Q8N806_137_YNDNFFGLYCICK (UniProt Q8N806) | 0.0481 | -0.0777
13 | UBE2V2_Q15819_69_VECGPKYPEAPPSVR (UniProt Q15819) | -0.0381 | -0.597
14 | UBAP2L_Q14157_75_NQDECVIALHDCNGDVNR (UniProt Q14157) | 0.0576 | -0.12
15 | UBE2V1_Q13404_71_IECGPKYPEAPPFVR (UniProt Q13404) | -0.0157 | -0.607
16 | UBE2M_P61081_95+111_CETMVYHPNIDLEGNVCLNILR (UniProt P61081) | 0.264 | 0.228
17 | UBA2_Q9UBT2_30_VLVVGAGGIGCELLK (UniProt Q9UBT2) | 0.11 | 0.0878
18 | UBR5_O95071_1382+1386_LDCFTHCLIVK (UniProt O95071) | 0.285 | -0.444

Row | Target | probe-labelled cysteine peptide fold change (10 µM) | probe-labelled cysteine peptide fold change (50 µM)
19 | UAP1L1_Q3KQV9_231_VAMAPDGNGGLYCALEDHK (UniProt Q3KQV9) | 0.0541 | 0.22
20 | UBA7_P41226_996_VLVLELSCEGDDEDTAFPPLHYEL (UniProt P41226) | -0.0157 | 0.059
21 | UBE4B_O95155_113_SQSMDIDGVSCEK (UniProt O95155) | -0.246 | -0.554
22 | UBR4_Q5T4S7_2618+2619_QLEGDCCSFITQLVNHFWK (UniProt Q5T4S7) | 0.0442 | -1.45
23 | UAP1_Q16222_251_GIWSIHVYCVDNILVK (UniProt Q16222) | -0.524 | -0.0431
24 | TXNRD1_Q16881_625_QLDSTIGIHPVCAEVFTTLSVTK (UniProt Q16881) | 0.287 | 0.315
25 | UACA_Q9BZF9_83_GNLECLNAILIHGVDITTSDTAGR (UniProt Q9BZF9) | -0.0861 | -0.293
26 | UBR5_O95071_51_QCVVGPNHAAFLLEDGR (UniProt O95071) | 0.141 | 0.166
27 | TYSND1_Q2T9J0_48_SPGLVLCHGGIFVPFLR (UniProt Q2T9J0) | -0.107 | 0.096
28 | UBR7_Q8N806_182_HLGAIPPESGDFQEMVCQACMK (UniProt Q8N806) | 0.0137 | -0.384
29 | UBA6_A0AVT1_473_LQNLNIFLVGCGAIGCEMLK | -0.2 | 0.0449
30 | U2AF2_P26368_442_IFVEFTSVFDCQK (UniProt P26368) | 0.0266 | 0.118
31 | UBR5_O95071_691_FPGTSSNTNCQNSSGPDADPSSLLQDCR (UniProt O95071) | -0.000612 | -0.405
32 | TXNL1_O43396_135+137_AGCECLNESDEHGFDNCLRK (UniProt O43396) | -0.534 | -0.915
33 | UBE2F_Q969M7_50+52_EVAELEANLPCTCK (UniProt Q969M7) | -0.126 | -0.225
34 | UBA6_A0AVT1_455_ACIGDTLCQK | -0.0288 | 0.0705
35 | TYK2_P29597_291_LLAQAEGEPCYIR (UniProt P29597) | -0.119 | -0.312

Reformatted as a markdown table: part of the list above.

| Row | Target | probe-labelled cysteine peptide fold change (10 µM) | probe-labelled cysteine peptide fold change (50 µM) |
| --- | --- | --- | --- |
| 22 | UBR4_Q5T4S7_2618+2619_QLEGDCCSFITQLVNHFWK (UniProt Q5T4S7) | 0.0442 | -1.45 |
| 25 | UACA_Q9BZF9_83_GNLECLNAILIHGVDITTSDTAGR (UniProt Q9BZF9) | -0.0861 | -0.293 |
| 35 | TYK2_P29597_291_LLAQAEGEPCYIR (UniProt P29597) | -0.119 | -0.312 |
